Measured values published in publication PMC11321651, “Regulation of Glandular Size and Phytoalexin Biosynthesis by a Negative Feedback Loop in Cotton”.

Target: T1, JAVL (JAVL_A) (UniProt A0A1U8LLK1)
T1 sequence (looked up, limits assumed): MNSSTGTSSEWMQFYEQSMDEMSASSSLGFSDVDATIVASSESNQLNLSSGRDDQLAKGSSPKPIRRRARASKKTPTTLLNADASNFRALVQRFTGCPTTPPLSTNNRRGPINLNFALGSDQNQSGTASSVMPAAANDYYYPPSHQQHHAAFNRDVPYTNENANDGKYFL
Assay: competition with a labelled probe
Conditions: EMSA: 30 °C for 30 min, then 5% native PAGE in Tris/borate/EDTA, 10 V/cm, 4 °C, 10x and 100x cold competitor, binding buffer, salt and pH not stated, recombinant protein, protein details: His (pET32a), label: unlabeled

Does “AACAGGAGATTTCACATGTATAATGATGTCAA (double strand) [GoPGF promoter mutant probe]” bind (unlabeled mutant competitor against N5)?
Result: no binding

Does “TTATGGCTGTAAACCATGTCGAATTCATGGAG (double strand) [AOS promoter mutant probe]” bind (unlabeled mutant competitor against N3)?
Result: no binding

Negatives hold for the conditions tested. At least one verdict rests on a figure or table, not on a statement of the authors. Protein sequences can lack the tags named with them.
